PubChem BioAssay AID686943 – Drosophila RNAi Screening Center | 2013

Test: 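Search across the genome for regulators of signalling from receptor tyrosine kinase to ERK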 (primary screen)
Cells: Drosophila S2R+ haemocyte-like cells expressing YFP-tagged ERK (Rolled)
Reagents: long dsRNA against Drosophila genes
Treatment: insulin stimulation versus unstimulated cells; dose and duration not given
Read-out: 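Per-plate z-scores of phospho-ERK immunostaining normalised to YFP-tagged ERK, measured with and without insulin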
Reading the numbers: replicate 1, z-score of dpERK with insulin and replicate 2, z-score of dpERK with insulin: higher = more active ERK per ERK-YFP after insulin; replicate 1, z-score of dpERK under basal conditions: higher = more basal active ERK per ERK-YFP; replicate 1, z-score of ERK-YFP with insulin: higher = more YFP-tagged ERK signal
The deposit covers about 23,000 reagents; below is an unselected part of those with a known target gene and a result. 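Extra replicates exist only for a retested subset of genes; insulin dose and duration not given; both raised and lowered dpERK matter.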 A plus sign joins genes that one reagent is predicted to hit. The record does not give: the amount of reagent, the time to read-out.

target | amplicon | replicate 1, z-score of dpERK with insulin | replicate 2, z-score of dpERK with insulin | replicate 1, z-score of dpERK under basal conditions | replicate 1, z-score of ERK-YFP with insulin
CG42694 | DRSC03955 | 0.98 | 0.29 | 0.25 | -0.69
Prat (Phosphoribosylamidotransferase) | DRSC16797 | 0.06 | 0.6 | -0.11 | 0.24
Xrcc2 (X-ray repair cross complementing 2) | DRSC19984 | 1 | 0.49 | 0.24 | -0.32
PGRP-SB2 (Peptidoglycan recognition protein SB2) | DRSC11092 | 0.77 | 0.51 | -1.37 | -0.75
mthl2 (methuselah-like 2) | DRSC10287 | 0.35 | 0.69 | -0.77 | 0.69
Gr85a (Gustatory receptor 85a) | DRSC12760 | -0.3 | 0.01 | 1.16 | 0.08
Dr (Drop) | DRSC17002 | 0.7 | 0.38 | -0.12 | 0.36
Dr (Drop) | DRSC22708 | -1.82 | -1.57 | -0.08 | 2.31
CG5004 | DRSC19929 | 0.09 | 0.44 | 0.71 | -0.12
CG5004 | DRSC19930 | -0.66 | 1.43 | 0.36 | -0.35
CG5004 | DRSC20123 | 0.39 | -5.28 | -4.1 | 2.86
CG13077 | DRSC02181 | 0.7 | -0.16 | -2.99 | -1.02
CG6324 | DRSC19985 | -0.05 | -0.07 | -0.62 | -0.14
CG32191 | DRSC10522 | -1.39 | -0.3 | -0.81 | 0.37
CG4000 | DRSC15535 | -0.06 | -0.02 | -0.59 | -0.06
CG4000 | DRSC21547 | 0.46 | -0.16 | -0.06 | -0.13
CG15550 | DRSC15088 | 0.16 | -0.05 | 0.4 | 0.01
CG7137 | DRSC07017 | 0.28 | -0.03 | 0.04 | -0.23
uzip (unzipped) | DRSC04722 | -0.28 | 0.16 | -0.39 | -0.28
Hsc70-5 (Heat shock protein 70 cognate 5) | DRSC07442 | 0.22 | 0.07 | -2 | -0.03
CG17580 | DRSC06683 | 0.27 | 0.5 | -0.07 | 0.04
CG5726 | DRSC06946 | -0.86 | 0.48 | 0.65 | 1.41
obst-A (obstructor-A) | DRSC20543 | 0.55 | 0.57 | -0.05 | -0.01
Pgant7 (Polypeptide N-Acetylgalactosaminyltransferase 7) | DRSC19991 | 0.01 | 0.12 | 0.19 | -0.31
Cyp6a14 (Cytochrome P450 6a14) | DRSC07376 | 0.25 | 0.32 | 0.03 | -0.54
Nup214 (Nucleoporin 214kD) | DRSC04421 | 0.9 | 0.8 | -0.18 | -0.78
Rbfox1 (RNA-binding Fox protein 1) | DRSC09034 | 0.21 | 0.12 | 1.32 | 0.3
Rbfox1 (RNA-binding Fox protein 1) | DRSC10157 | -4.6 | -0.1 | -0.16 | -4.9
Rbfox1 (RNA-binding Fox protein 1) | DRSC10320 | -0.65 | -2.05 | -1.1 | 0.76
Rbfox1 (RNA-binding Fox protein 1) | DRSC21378 | 0.38 | -0.06 | 0.65 | -0.78
Cht8 (Chitinase 8) | DRSC04546 | -1.19 | 0.01 | 0.27 | 0.56
CG11986 | DRSC14461 | -0.65 | -0.53 | 0.03 | 0.96
UGP + PGRP-LF | DRSC10418 | 0.46 | 0.23 | 0.21 | 0.05
CG15019 | DRSC08473 | 0.12 | -0.65 | -0.63 | 0.04
Sp1 | DRSC17622 | 0.74 | -0.26 | 0.07 | -0.02
Sp1 | DRSC18717 | 0.28 | 0.09 | 1.45 | 0.11
Elovl7 (ELOVL fatty acid elongase 7) | DRSC15452 | 0.09 | -0.05 | -0.06 | 0.28
Elovl7 (ELOVL fatty acid elongase 7) | DRSC21570 | 0.73 | 1.12 | 1.11 | -0.43
CG5290 | DRSC10501 | -0.14 | -0.32 | 1.22 | 1.23
CG12253 | DRSC02153 | 0.41 | 0.96 | -0.57 | 0.65
CG43219 | DRSC11472 | -0.57 | -0.76 | -2.05 | 0.18
ghi (ghiberti) | DRSC08985 | 0.75 | 2.05 | 2.99 | 0.07
Syn2 (Syntrophin-like 2) | DRSC06902 | 1.41 | 0.3 | 0.77 | -0.4
CG5024 | DRSC15698 | -0.41 | -0.22 | 1.29 | 0.14
PDCD-5 (Programmed Cell Death 5) | DRSC09955 | -0.14 | -0.02 | -0.4 | 0.69
CG8765 | DRSC11041 | -0.13 | -0.78 | -1.72 | -0.63
ova (ovaries absent) | DRSC02879 | -0.08 | -0.57 | 3.16 | 0.63
CG13870 | DRSC06429 | -0.7 | -1.12 | 0.12 | 0.63
CG33796 | DRSC09417 | -0.19 | -0.04 | -0.72 | -0.01
ND4 (retired record) | DRSC21269 | 0.42 | 0.59 | 2.38 | 0.51
Pbp95 (PSEA-binding protein 95kD) | DRSC15448 | -0.73 | -0.03 | 0.02 | 0.33
SF1 (Splicing factor 1) | DRSC16844 | 1.21 | 1.7 | -0.05 | -0.06
CG43336 | DRSC15765 | 0.02 | 1 | -1.83 | 0.36
PLCXD | DRSC02427 | 1.58 | -1.12 | 0.43 | 0.73
O-fut2 (O-fucosyltransferase 2) | DRSC18608 | 0.5 | -0.13 | -0.29 | 0.14
Ir64a (Ionotropic receptor 64a) | DRSC09759 | -0.41 | -0.17 | – | 0.38
Ir64a (Ionotropic receptor 64a) | DRSC09760 | 0.35 | 0.38 | – | -0.26
GstD11 (Glutathione S transferase D11) | DRSC15251 | -0.19 | -0.2 | 0.02 | -0.09
CG5500 | DRSC15820 | 0.42 | -0.35 | -0.57 | 0.39
CG8630 | DRSC16441 | 0.52 | 0.16 | 1.67 | -1.26
Arl5 (ADP-ribosylation factor-like 5) | DRSC10785 | 0.59 | 0.32 | 0.7 | 0.41
norpA (no receptor potential A) | DRSC18806 | -0.18 | 0.91 | -0.37 | -3.4
Afg3l2 (AFG3 like matrix AAA peptidase subunit 2) | DRSC10657 | -0.08 | 0.38 | 0.18 | -1.3
sax (saxophone) | DRSC07675 | -0.32 | 0.34 | 0.72 | 0.25
CG7536 | DRSC20050 | -0.61 | -0.36 | 0.68 | 1.02
CG13151 | DRSC06276 | 0.38 | 0.27 | -0.84 | 0.07
CG17237 | DRSC00491 | -0.29 | 0.51 | 0.85 | 0.68
Shmt (Serine hydroxymethyl transferase) | DRSC18264 | 0.4 | 0.38 | -0.24 | -0.13
pod1 (pod1 coronin) | DRSC18362 | -0.09 | -0.33 | -0.32 | 0.92
CG9890 | DRSC04590 | 0.28 | 0.97 | 0.77 | -0.18
CG3566 | DRSC18311 | -1.05 | -0.29 | -2.49 | -0.46
Erasp (Endoplasmic reticulum stress-associated serine protease) | DRSC07111 | 0.38 | -0.82 | 0.91 | 0.78
CenG1A (Centaurin gamma 1A) | DRSC02538 | -0.69 | 0.07 | -0.79 | 0.43
CenG1A (Centaurin gamma 1A) | DRSC03505 | 0.31 | 0.09 | -0.32 | -0.16
CenG1A (Centaurin gamma 1A) | DRSC03506 | 0.66 | 0.19 | 1.34 | 0.06
